{
  "sequences": {"note": "Sequences of proteins named here, by UniProt entry; tags and fusion partners are left off. A change or cut given only in a name is not applied to a line headed by its entry.", "UniProt Q9C030": "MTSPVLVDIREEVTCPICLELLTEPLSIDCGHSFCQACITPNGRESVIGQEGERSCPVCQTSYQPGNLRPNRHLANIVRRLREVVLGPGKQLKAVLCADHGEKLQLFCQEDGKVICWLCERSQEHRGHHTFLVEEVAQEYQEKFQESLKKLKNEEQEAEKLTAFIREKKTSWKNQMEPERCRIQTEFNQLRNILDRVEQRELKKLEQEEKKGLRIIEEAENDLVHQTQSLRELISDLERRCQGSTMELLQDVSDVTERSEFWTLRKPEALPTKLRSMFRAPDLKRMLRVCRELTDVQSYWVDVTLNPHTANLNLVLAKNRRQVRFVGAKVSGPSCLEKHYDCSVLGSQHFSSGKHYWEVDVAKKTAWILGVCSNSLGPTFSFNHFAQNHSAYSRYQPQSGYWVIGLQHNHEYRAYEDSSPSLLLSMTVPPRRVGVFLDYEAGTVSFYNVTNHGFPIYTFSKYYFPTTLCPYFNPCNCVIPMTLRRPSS", "UniProt Q9BY11": "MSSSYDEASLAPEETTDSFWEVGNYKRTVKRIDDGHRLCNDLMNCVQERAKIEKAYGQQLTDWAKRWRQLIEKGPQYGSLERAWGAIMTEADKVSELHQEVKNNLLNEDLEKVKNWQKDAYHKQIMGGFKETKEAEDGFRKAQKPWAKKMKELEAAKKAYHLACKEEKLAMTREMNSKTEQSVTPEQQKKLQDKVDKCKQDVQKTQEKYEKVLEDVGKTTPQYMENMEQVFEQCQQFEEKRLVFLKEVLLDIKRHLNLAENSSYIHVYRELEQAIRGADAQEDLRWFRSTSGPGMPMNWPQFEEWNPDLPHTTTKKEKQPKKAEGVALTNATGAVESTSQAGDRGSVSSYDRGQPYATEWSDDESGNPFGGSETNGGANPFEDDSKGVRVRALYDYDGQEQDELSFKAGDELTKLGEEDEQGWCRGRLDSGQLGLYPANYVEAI", "UniProt Q9GZX9": "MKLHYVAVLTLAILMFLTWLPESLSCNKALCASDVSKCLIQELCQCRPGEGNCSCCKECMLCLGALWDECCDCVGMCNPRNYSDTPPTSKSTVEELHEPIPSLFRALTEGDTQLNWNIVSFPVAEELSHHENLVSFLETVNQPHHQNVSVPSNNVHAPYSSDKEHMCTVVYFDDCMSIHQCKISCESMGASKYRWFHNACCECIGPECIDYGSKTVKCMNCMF", "UniProt Q9H0K1": "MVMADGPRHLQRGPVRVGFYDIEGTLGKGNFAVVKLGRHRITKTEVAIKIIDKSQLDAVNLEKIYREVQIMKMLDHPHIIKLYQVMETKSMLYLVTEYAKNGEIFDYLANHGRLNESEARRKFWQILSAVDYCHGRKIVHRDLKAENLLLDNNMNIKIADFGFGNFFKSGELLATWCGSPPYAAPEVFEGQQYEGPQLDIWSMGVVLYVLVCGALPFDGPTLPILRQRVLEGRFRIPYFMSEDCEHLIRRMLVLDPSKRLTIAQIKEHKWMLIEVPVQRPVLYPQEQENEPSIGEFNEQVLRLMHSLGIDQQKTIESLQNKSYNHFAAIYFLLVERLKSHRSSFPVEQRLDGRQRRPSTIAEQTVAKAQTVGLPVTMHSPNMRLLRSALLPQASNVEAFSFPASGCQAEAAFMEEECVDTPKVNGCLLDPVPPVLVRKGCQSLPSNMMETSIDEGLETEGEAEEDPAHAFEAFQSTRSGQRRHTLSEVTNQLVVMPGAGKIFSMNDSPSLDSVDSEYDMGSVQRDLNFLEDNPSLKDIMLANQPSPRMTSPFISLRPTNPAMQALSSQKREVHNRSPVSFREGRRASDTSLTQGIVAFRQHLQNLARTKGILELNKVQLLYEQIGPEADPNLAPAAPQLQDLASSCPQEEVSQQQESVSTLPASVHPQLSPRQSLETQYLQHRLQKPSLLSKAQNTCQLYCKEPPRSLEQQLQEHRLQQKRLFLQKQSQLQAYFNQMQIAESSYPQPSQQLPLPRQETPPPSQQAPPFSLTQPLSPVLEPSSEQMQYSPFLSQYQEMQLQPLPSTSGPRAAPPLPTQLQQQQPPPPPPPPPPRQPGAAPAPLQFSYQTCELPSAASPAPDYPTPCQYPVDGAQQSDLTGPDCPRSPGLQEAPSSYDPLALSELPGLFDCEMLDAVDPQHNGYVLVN", "UniProt Q9BZF2": "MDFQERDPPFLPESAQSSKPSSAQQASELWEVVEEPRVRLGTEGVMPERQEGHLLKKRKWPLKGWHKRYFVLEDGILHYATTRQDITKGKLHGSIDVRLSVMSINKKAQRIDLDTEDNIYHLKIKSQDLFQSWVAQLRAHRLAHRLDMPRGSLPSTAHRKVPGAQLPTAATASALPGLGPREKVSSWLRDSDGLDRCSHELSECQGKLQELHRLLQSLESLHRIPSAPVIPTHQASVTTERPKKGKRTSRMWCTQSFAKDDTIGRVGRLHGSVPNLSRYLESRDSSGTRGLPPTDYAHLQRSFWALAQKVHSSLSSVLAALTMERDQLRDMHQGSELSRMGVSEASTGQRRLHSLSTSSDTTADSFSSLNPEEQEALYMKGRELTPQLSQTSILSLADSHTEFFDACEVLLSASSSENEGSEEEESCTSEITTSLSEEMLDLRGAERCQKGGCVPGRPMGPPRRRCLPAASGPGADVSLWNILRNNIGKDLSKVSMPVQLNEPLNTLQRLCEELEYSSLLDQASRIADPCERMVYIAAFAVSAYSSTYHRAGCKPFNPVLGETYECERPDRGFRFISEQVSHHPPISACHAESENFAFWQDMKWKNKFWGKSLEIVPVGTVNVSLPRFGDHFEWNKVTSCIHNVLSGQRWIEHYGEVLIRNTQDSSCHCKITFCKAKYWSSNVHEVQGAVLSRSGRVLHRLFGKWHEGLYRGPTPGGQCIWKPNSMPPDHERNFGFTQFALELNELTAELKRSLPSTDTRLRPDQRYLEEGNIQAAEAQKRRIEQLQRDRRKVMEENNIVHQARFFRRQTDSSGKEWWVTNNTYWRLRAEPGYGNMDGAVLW", "UniProt Q9BZE9, whole entry": "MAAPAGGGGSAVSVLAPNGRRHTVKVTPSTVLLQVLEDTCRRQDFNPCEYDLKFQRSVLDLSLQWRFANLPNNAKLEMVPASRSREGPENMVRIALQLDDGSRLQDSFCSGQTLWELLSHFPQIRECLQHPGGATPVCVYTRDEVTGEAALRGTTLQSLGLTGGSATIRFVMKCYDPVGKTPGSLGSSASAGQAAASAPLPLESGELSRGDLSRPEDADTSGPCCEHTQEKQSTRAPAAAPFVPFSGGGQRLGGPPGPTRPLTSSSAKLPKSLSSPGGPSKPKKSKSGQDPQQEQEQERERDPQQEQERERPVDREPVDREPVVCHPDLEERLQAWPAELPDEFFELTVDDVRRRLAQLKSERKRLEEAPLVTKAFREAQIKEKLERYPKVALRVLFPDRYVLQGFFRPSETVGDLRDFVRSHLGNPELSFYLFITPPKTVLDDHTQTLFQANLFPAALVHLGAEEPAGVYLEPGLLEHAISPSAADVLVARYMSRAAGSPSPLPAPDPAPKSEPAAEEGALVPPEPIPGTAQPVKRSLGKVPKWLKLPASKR", "UniProt Q9BZ23": "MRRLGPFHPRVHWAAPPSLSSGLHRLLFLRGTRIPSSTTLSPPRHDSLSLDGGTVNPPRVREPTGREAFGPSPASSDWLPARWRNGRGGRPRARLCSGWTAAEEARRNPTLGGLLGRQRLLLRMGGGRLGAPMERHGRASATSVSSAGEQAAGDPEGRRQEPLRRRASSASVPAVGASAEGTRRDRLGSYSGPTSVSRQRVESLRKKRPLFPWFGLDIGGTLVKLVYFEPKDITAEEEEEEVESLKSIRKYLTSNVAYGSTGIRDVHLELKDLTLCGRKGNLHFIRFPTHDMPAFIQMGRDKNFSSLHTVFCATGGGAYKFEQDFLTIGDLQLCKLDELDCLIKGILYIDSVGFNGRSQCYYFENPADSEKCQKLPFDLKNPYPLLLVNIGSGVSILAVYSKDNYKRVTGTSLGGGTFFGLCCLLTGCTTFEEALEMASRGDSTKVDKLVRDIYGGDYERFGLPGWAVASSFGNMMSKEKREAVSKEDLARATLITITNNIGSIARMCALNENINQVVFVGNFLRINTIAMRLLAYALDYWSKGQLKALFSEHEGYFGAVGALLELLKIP", "UniProt Q9BXJ9": "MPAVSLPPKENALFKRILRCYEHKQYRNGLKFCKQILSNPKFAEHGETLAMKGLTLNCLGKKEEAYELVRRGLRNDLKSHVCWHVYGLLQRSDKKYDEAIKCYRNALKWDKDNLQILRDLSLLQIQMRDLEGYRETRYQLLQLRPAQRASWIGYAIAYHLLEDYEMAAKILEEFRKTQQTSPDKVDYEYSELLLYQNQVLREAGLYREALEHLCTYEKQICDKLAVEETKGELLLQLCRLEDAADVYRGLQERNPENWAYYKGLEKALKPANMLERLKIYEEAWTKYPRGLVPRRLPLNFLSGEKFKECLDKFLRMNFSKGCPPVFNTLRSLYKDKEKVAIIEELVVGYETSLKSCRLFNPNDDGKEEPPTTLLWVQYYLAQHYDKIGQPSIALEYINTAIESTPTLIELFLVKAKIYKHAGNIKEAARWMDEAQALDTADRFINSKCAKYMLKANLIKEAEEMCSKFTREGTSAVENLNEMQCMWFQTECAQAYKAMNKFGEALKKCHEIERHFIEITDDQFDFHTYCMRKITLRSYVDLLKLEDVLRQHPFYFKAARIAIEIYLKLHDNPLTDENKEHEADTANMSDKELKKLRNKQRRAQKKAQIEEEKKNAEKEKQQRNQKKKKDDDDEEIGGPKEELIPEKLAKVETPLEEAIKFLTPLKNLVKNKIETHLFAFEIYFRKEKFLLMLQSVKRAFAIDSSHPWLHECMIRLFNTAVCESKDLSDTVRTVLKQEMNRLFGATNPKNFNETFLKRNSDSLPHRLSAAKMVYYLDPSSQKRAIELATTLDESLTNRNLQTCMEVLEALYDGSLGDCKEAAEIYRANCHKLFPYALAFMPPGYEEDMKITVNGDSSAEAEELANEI", "UniProt Q9C0F1": "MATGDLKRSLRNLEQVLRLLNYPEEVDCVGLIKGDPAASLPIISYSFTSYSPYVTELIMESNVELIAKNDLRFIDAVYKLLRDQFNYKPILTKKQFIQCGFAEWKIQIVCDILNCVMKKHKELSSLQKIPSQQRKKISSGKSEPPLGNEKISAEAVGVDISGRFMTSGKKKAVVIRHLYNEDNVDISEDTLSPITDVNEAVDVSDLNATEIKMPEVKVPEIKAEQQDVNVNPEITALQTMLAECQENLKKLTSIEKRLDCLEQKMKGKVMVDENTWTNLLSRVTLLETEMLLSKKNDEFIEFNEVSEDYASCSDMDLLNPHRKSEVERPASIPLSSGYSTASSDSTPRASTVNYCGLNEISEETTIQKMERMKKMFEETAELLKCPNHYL", "UniProt Q9BZF1": "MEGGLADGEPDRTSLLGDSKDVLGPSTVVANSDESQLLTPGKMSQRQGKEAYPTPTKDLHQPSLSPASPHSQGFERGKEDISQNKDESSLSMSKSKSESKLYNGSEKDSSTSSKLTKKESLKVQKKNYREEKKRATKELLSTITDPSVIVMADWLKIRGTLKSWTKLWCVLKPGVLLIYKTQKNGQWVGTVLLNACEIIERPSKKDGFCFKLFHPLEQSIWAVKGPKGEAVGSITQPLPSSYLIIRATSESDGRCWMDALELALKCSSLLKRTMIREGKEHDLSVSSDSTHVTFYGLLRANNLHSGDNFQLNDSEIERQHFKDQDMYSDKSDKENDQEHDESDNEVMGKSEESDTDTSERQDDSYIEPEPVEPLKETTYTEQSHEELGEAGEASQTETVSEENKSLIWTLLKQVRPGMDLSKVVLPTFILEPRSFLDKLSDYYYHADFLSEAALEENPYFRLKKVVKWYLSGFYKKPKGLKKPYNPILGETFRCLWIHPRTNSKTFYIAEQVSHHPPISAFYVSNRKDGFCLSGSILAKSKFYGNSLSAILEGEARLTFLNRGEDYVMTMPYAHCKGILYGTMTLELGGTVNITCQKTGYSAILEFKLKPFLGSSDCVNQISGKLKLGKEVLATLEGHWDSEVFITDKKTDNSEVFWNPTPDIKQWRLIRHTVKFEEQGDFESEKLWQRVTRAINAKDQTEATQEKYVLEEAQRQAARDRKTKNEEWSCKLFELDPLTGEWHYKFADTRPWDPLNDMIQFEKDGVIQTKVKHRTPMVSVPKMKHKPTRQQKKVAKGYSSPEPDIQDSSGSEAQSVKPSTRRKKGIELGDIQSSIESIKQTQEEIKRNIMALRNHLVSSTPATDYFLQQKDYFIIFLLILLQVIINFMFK"},
  "source": "the supplement of paper PMC12819154",
  "about": "“High-throughput peptide-centric local stability assay extends protein–ligand identification to membrane proteins, tissues and bacteria” (Nature Structural & Molecular Biology, 2025)",
  "note": "The other results are listed elsewhere or left out. Most entries show no effect beyond the scatter of the controls.",
  "data": [
    {"compound": "CN[C@@H]1C[C@H]2O[C@@](C)([C@@H]1OC)n1c3ccccc3c3c4c(c5c6ccccc6n2c5c31)C(=O)NC4 [staurosporine]", "experiment": "log2 fold change of tryptic peptide abundance, ligand vs vehicle (limited proteolysis) (log2 ratio); higher = more trypsin-susceptible (destabilized)", "details": "ligand concentration: 20 uM; sample: K562 cleared lysate; digestion: 4 min, 22 C (HT-PELSA RT4min, Orbitrap Astral)", "values": [
      {"target": "UniProt Q9C030 (peptide sequence: IIEEAENDLVHQTQSLR, peptide start residue: 215)", "log2 fold change": -0.251},
      {"target": "VPS16 (peptide sequence: ASYAAEER, peptide start residue: 636) (UniProt Q9H269)", "log2 fold change": -0.161},
      {"target": "SEMA4C (peptide sequence: GGLGHPLPELADELRR, peptide start residue: 800) (UniProt Q9C0C4)", "log2 fold change": -0.103},
      {"target": "PACSIN1 (peptide sequence: TEQSVTPEQQK, peptide start residue: 179) (UniProt Q9BY11)", "log2 fold change": -0.0885},
      {"target": "TWSG1 (peptide sequence: STVEELHEPIPSLFR, peptide start residue: 91) (UniProt Q9GZX9)", "log2 fold change": -0.0524},
      {"target": "UniProt Q9H0K1 (peptide sequence: QRRPSTIAEQTVAK, peptide start residue: 354)", "log2 fold change": 0.853},
      {"target": "UniProt Q9BZF2 (peptide sequence: AGCKPFNPVLGETYECERPDR, peptide start residue: 551)", "log2 fold change": -1.31},
      {"target": "CEP295 (peptide sequence: SESAEHTIPSLFLPK, peptide start residue: 1635) (UniProt Q9C0D2)", "log2 fold change": 0.485},
      {"target": "DDX47 (peptide sequence: LQQYYIFIPSKFK, peptide start residue: 238) (UniProt Q9H0S4)", "log2 fold change": -0.74},
      {"target": "ASPSCR1 (peptide sequence: FANLPNNAKLEMVPASR, peptide start residue: 67) (UniProt Q9BZE9)", "log2 fold change": 0.285},
      {"target": "KDM5D (peptide sequence: DLPVGLEELR, peptide start residue: 1060) (UniProt Q9BY66)", "log2 fold change": -0.0591},
      {"target": "PANK2 (peptide sequence: LGSYSGPTSVSR, peptide start residue: 187) (UniProt Q9BZ23)", "log2 fold change": -0.147},
      {"target": "UniProt Q9BXJ9 (peptide sequence: HFIEITDDQFDFHTYCMR, peptide start residue: 514)", "log2 fold change": 0.719},
      {"target": "PPP1R12C (peptide sequence: TGASALHVAAAK, peptide start residue: 226) (UniProt Q9BZL4)", "log2 fold change": 0.365},
      {"target": "UniProt Q9C0F1 (peptide sequence: DQFNYKPILTK, peptide start residue: 83)", "log2 fold change": -0.385},
      {"target": "OSBPL8 (peptide sequence: GKEDISQNKDESSLSMSK, peptide start residue: 77) (UniProt Q9BZF1)", "log2 fold change": -0.394}
    ]}
  ]
}
